Some of the results follow.
Compound: CC[C@H](C)[C@@H](C(=O)N[C@@H]([C@@H](C)O)C(=O)N[C@@H](CC(C)C)C(=O)[C@]1(CO1)C)NC(=O)[C@H]([C@@H](C)CC)N(C)C(=O)C [epoxomicin]
Experiment: log2 fold change, soluble protein after heating vs DMSO (PISA); higher = thermal stabilisation; K562 cells, 10 uM, 30 min; active = over 0.2 and 3.5 SD of the protein, either way, in both replicates (recomputed)
How it was run: (§1)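 K562 cells at 2×10^6 cells/mL were given 10 μM compound for 30 min. Aliquots then went through 3 min of heating across 48°C-58°C, were pooled, and were extracted in PBS with 0.5% NP-40 at 4°C, and the supernatant after 21,000xg for 90 min was quantified by TMTpro 16plex LC-MS/MS with channel sums equalised. Thermal stability relative to control samples, from duplicates, is given as log2 fold change.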

Protein sequences, listed by entry. Tags and fused reporters are not part of them. Lines headed by an entry give the natural chain unless they say otherwise; changes in a name come on top.
UniProt Q7Z7B1: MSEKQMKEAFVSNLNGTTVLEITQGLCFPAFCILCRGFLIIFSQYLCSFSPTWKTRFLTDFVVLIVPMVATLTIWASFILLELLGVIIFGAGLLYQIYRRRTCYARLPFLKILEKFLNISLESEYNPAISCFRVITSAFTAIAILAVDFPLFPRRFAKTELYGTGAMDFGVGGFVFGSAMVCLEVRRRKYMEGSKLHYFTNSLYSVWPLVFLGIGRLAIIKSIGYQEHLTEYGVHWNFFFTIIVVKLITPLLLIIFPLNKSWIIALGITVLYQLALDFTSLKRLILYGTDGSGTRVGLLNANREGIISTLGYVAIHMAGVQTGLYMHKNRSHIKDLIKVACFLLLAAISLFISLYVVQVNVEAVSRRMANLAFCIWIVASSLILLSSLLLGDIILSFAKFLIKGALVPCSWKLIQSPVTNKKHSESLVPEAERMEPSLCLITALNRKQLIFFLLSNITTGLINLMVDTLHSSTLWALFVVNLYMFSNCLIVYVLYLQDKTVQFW
UniProt A6NDG6: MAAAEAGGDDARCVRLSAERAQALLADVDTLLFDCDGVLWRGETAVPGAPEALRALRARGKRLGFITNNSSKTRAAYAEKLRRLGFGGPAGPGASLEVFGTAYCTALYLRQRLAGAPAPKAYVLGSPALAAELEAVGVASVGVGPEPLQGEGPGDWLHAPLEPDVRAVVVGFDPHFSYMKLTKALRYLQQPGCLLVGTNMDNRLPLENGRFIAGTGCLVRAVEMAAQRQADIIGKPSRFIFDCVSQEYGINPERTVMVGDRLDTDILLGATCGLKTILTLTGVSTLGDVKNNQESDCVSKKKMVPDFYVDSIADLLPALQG
UniProt P08237: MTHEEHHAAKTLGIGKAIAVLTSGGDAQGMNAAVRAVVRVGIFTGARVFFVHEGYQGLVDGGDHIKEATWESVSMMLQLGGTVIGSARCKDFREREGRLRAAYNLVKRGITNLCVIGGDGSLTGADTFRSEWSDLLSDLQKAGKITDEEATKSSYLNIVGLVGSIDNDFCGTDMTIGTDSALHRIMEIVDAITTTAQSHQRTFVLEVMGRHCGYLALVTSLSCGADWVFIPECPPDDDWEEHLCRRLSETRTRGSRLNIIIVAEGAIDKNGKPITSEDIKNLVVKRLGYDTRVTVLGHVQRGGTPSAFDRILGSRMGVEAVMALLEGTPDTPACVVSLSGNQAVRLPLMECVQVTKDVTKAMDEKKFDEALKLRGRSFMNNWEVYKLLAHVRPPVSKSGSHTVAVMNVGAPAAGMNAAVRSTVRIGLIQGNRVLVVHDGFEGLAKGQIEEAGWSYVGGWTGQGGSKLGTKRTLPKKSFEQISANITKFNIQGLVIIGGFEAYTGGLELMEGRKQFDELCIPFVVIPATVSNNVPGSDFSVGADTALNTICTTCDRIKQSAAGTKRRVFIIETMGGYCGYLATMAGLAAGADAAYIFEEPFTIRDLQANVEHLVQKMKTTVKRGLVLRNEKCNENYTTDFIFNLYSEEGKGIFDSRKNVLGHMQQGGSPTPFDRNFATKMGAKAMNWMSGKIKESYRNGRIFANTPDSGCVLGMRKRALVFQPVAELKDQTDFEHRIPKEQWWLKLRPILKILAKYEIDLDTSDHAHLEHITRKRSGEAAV
PIGBOS1, A0A0B4J2F0, UniProt A0A0B4J2F0, whole entry, looked up: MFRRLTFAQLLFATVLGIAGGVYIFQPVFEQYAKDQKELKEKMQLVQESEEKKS
UniProt O75167: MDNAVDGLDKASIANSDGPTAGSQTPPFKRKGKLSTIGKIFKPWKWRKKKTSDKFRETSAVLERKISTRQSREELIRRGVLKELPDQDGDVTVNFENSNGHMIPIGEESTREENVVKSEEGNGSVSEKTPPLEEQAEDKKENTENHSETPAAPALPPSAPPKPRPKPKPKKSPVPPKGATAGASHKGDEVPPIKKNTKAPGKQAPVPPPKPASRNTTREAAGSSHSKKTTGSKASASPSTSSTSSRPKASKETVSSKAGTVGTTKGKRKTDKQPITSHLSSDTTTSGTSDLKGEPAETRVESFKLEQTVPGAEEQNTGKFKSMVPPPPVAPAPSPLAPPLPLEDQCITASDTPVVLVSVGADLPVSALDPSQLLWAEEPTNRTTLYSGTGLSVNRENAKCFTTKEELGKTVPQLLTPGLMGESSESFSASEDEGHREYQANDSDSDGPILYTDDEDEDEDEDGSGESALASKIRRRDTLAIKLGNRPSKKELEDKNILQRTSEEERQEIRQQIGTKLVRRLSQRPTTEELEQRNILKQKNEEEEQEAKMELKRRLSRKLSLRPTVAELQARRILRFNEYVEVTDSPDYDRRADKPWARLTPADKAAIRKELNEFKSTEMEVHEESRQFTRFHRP
UniProt P30613: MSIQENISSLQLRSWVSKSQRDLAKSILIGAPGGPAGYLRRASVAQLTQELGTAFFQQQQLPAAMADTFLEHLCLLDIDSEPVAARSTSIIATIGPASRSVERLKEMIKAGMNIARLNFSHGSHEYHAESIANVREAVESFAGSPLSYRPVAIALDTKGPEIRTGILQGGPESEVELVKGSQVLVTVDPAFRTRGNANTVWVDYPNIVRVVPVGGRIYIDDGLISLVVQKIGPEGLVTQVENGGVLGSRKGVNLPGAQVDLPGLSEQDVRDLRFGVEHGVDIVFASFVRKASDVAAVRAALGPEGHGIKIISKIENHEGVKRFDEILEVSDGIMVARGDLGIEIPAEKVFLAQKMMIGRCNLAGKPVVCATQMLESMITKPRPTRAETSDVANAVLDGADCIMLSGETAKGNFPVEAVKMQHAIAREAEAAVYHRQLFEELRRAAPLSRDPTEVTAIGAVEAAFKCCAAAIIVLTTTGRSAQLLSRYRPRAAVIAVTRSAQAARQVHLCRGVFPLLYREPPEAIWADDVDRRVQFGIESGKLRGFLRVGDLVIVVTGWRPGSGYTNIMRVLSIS
UniProt Q93100: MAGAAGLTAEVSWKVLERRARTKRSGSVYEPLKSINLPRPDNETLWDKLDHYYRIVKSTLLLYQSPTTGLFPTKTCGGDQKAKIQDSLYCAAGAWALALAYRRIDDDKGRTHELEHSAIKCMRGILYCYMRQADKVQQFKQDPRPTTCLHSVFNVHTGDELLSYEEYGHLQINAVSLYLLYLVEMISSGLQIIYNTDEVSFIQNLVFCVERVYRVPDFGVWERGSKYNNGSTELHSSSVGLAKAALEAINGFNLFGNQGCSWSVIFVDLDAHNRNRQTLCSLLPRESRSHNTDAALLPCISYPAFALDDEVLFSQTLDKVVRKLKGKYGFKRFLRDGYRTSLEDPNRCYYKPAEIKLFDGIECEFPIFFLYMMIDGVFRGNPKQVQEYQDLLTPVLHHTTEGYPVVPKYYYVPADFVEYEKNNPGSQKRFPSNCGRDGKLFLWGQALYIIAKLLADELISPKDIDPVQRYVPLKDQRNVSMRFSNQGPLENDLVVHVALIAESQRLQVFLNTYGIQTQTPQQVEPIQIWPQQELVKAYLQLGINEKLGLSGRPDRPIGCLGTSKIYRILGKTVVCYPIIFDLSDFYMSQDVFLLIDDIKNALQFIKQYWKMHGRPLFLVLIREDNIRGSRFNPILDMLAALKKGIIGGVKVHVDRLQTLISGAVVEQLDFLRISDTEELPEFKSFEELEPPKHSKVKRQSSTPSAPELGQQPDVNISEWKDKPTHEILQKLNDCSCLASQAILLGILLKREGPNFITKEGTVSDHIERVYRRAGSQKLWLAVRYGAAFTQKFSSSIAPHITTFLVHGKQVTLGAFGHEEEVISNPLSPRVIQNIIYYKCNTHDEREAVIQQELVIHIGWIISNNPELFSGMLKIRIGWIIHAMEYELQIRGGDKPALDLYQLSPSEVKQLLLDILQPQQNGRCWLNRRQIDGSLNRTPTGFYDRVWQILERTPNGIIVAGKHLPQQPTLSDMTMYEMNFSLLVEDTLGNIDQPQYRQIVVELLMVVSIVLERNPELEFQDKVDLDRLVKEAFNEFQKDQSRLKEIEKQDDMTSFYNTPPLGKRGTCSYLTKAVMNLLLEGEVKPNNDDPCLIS
UniProt Q9NQP4, whole entry, looked up: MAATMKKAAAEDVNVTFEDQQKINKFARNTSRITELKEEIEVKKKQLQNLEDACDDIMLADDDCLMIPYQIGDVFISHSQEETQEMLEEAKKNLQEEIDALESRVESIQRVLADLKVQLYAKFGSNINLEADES
UniProt P18669: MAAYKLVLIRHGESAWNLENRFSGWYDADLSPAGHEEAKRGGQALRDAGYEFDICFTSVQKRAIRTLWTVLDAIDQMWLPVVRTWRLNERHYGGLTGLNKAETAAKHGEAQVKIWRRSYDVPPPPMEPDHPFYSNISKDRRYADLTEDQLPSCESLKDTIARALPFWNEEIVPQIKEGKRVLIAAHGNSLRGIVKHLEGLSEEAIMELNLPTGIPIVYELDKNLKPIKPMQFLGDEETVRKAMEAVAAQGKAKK
UniProt P35232: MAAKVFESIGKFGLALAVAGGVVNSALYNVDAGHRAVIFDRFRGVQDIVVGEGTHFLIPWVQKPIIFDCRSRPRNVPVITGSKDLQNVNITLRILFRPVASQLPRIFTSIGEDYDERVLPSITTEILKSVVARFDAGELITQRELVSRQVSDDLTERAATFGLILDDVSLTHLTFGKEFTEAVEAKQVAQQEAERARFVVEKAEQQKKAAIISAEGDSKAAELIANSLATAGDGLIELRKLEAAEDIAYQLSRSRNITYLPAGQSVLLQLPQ
UniProt Q16877: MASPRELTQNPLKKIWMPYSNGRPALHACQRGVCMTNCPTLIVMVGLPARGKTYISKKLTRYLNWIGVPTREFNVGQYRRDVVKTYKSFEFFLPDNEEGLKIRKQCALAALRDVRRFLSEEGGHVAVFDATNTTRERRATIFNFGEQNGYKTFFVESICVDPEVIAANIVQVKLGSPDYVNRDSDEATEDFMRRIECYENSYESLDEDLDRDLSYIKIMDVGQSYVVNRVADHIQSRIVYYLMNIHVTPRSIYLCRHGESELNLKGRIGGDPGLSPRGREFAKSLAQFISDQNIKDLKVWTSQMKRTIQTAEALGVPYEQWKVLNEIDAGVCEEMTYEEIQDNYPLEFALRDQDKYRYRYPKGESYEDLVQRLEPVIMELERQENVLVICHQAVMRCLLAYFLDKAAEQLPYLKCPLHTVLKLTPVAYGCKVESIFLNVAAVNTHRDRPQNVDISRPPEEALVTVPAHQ
UniProt O00459, whole entry, looked up: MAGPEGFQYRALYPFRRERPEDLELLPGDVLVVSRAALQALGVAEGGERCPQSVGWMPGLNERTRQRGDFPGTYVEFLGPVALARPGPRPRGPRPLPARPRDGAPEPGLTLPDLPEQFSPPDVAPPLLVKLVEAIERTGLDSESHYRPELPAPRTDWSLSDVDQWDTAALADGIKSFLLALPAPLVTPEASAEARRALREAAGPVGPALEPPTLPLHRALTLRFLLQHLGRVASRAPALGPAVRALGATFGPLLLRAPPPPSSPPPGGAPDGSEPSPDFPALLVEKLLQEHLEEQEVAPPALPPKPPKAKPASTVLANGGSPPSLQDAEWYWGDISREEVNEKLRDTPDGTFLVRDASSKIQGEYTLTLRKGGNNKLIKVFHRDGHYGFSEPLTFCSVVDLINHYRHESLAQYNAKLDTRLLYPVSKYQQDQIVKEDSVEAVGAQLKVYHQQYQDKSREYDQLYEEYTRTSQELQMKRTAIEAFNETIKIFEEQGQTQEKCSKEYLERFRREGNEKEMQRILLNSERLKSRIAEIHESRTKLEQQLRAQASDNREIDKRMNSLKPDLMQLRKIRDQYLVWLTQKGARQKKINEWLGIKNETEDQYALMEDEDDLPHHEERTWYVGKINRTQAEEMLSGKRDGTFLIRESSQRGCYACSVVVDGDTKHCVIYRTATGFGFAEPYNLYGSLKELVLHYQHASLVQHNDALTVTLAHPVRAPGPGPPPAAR
UniProt Q32NB8: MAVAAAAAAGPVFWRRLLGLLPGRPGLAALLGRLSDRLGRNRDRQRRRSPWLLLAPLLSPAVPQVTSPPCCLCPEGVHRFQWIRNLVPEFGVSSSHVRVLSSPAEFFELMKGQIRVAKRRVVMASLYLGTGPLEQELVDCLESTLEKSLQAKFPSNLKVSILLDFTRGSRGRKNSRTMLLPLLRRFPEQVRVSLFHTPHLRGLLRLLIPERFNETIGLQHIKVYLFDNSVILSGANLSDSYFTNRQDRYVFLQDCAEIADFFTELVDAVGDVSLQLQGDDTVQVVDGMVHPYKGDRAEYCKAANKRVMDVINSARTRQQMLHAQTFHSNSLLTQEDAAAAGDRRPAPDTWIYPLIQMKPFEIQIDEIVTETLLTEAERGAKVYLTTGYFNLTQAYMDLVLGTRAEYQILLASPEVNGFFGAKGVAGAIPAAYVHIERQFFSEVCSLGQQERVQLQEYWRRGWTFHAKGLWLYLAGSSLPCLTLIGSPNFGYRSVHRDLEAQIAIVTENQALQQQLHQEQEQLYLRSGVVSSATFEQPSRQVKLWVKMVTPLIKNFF
UniProt Q9GZP4: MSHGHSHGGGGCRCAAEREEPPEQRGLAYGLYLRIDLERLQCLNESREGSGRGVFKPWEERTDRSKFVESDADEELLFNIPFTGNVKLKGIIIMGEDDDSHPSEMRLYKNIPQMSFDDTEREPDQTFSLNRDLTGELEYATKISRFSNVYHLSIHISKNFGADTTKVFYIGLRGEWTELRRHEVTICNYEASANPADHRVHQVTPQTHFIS

log2 fold change, inactive:
PIGW (UniProt Q7Z7B1) 0.033
PGP (UniProt A6NDG6) 0.018
PFKM isoform 3 (UniProt P08237) 0.008
PLA2G12A (UniProt Q9BZM1) -0.122
PFKFB3 isoform 4 (UniProt Q16875) 0.088
PHB2 (UniProt Q99623) 0.012
PGM2 (UniProt Q96G03) 0
PIGBOS1, A0A0B4J2F0 0.279
PHACTR2 isoform 4 (UniProt O75167) -0.047
PKLR (UniProt P30613) 0.013
PHKB isoform 3 (UniProt Q93100) -0.026
PFDN4 (UniProt Q9NQP4) -0.026
PGM2L1 (UniProt Q6PCE3) -0.006
PHF19 isoform 2 (UniProt Q5T6S3) 0.188
PGAM1 (UniProt P18669) 0.024
PLCH1 (UniProt Q4KWH8) 0.07
PFKP (UniProt Q01813) 0.004
PHPT1 (UniProt Q9NRX4) 0.016
PHB (UniProt P35232) 0.004
PFKFB4 (UniProt Q16877) -0.036
PIK3R2 (UniProt O00459) -0.029
PFKL isoform 2 (UniProt P17858) -0.012
PFDN2 (UniProt Q9UHV9) -0.005
PHF6 (UniProt Q8IWS0) -0.282
PHF3 (UniProt Q92576) -0.061
PHACTR4 isoform 2 (UniProt Q8IZ21) 0.016
PEX6 (UniProt Q13608) -0.012
PLAA (UniProt Q9Y263) 0.103
PGS1 (UniProt Q32NB8) 0.089
PI4KA (UniProt P42356) -0.072
PITHD1 (UniProt Q9GZP4) 0.012
PLEC (UniProt Q15149) -0.067

Compound: CCn1c(C(=O)N(C2CC2)C2CC2)cc2c3c(ncn3C)c(Nc3cc(C)n(C)n3)nc21
Experiment: as above
How it was run: as §1

log2 fold change, inactive:
PIGW (UniProt Q7Z7B1) -0.032
PGP (UniProt A6NDG6) 0.021
PFKM isoform 3 (UniProt P08237) 0.007
PLA2G12A (UniProt Q9BZM1) -0.028
PFKFB3 isoform 4 (UniProt Q16875) 0.012
PHB2 (UniProt Q99623) 0.041
PGM2 (UniProt Q96G03) 0.011
PIGBOS1, A0A0B4J2F0 0.087
PHACTR2 isoform 4 (UniProt O75167) 0.003
PKLR (UniProt P30613) -0.011
PHKB isoform 3 (UniProt Q93100) -0.061
PFDN4 (UniProt Q9NQP4) -0.002
PGM2L1 (UniProt Q6PCE3) 0.053
PHF19 isoform 2 (UniProt Q5T6S3) -0.012
PGAM1 (UniProt P18669) 0.013
PLCH1 (UniProt Q4KWH8) -0.076
PFKP (UniProt Q01813) -0.016
PHPT1 (UniProt Q9NRX4) 0.096
PHB (UniProt P35232) 0.012
PFKFB4 (UniProt Q16877) -0.026
PIK3R2 (UniProt O00459) -0.039
PFKL isoform 2 (UniProt P17858) 0.029
PFDN2 (UniProt Q9UHV9) 0.05
PHF6 (UniProt Q8IWS0) -0.003
PHF3 (UniProt Q92576) -0.007
PHACTR4 isoform 2 (UniProt Q8IZ21) 0.001
PEX6 (UniProt Q13608) -0.03
PLAA (UniProt Q9Y263) -0.031
PGS1 (UniProt Q32NB8) 0.045
PI4KA (UniProt P42356) -0.078
PITHD1 (UniProt Q9GZP4) 0.025
PLEC (UniProt Q15149) -0.042

Compound: CCn1cc(-c2ccnc3[nH]c(-c4cccc(CN(C)C)c4)cc23)c(-c2ccc(NC(=O)N(C)C)cc2)n1
Experiment: as above
How it was run: as §1

log2 fold change, inactive:
PIGW (UniProt Q7Z7B1) -0.117
PGP (UniProt A6NDG6) -0.031
PFKM isoform 3 (UniProt P08237) -0.002
PLA2G12A (UniProt Q9BZM1) -0.056
PFKFB3 isoform 4 (UniProt Q16875) -0.01
PHB2 (UniProt Q99623) 0.031
PGM2 (UniProt Q96G03) -0.011
PIGBOS1, A0A0B4J2F0 -0.007
PHACTR2 isoform 4 (UniProt O75167) -0.047
PKLR (UniProt P30613) -0.007
PHKB isoform 3 (UniProt Q93100) 0.087
PFDN4 (UniProt Q9NQP4) 0.009
PGM2L1 (UniProt Q6PCE3) -0.017
PHF19 isoform 2 (UniProt Q5T6S3) -0.011
PGAM1 (UniProt P18669) -0.004
PLCH1 (UniProt Q4KWH8) 0.067
PFKP (UniProt Q01813) -0.026
PHPT1 (UniProt Q9NRX4) -0.011
PHB (UniProt P35232) 0.016
PFKFB4 (UniProt Q16877) 0.015
PIK3R2 (UniProt O00459) -0.003
PFKL isoform 2 (UniProt P17858) 0
PFDN2 (UniProt Q9UHV9) 0.02
PHF6 (UniProt Q8IWS0) 0.176
PHF3 (UniProt Q92576) 0.057
PHACTR4 isoform 2 (UniProt Q8IZ21) -0.033
PEX6 (UniProt Q13608) -0.049
PLAA (UniProt Q9Y263) -0.046
PGS1 (UniProt Q32NB8) -0.246
PI4KA (UniProt P42356) -0.024
PITHD1 (UniProt Q9GZP4) 0.011
PLEC (UniProt Q15149) -0.003

From the supplement of paper PMC10849652
